# Source: patent US9775883B2, “Methods, systems, and compositions for promoting recovery of peripheral neuropathy” (HENRY FORD HEALTH SYSTEM, priority 2011, dated 2017)
# Not every detail of the peptide structures is certain; ends, links or a residue may be inferred.
# System: db/db mice
# Test: Tail-flick and hot plate tests (thermal latency)
# Type: in vivo, mouse
# Conditions: from end of treatment, persisted at least 4 weeks after termination
smiles,measurement,value
"CC[C@H](C)[C@H](NC(=O)[C@H](CCC(=O)O)NC(=O)[C@H](C)NC(=O)[C@H](CCSC)NC(=O)[C@H](CC(=O)O)NC(=O)[C@@H]1CCCN1C(=O)[C@H](CCCCN)NC(=O)[C@H](CC(=O)O)NC(=O)[C@H](CO)NC(C)=O)C(=O)N[C@@H](CCC(=O)O)C(=O)N[C@@H](CCCCN)C(=O)N[C@@H](Cc1ccccc1)C(=O)N[C@@H](CC(=O)O)C(=O)N[C@@H](CCCCN)C(=O)N[C@@H](CO)C(=O)N[C@@H](CCCCN)C(=O)N[C@@H](CC(C)C)C(=O)N[C@@H](CCCCN)C(=O)N[C@@H](CCCCN)C(=O)N[C@H](C(=O)N[C@@H](CCC(=O)O)C(=O)N[C@H](C(=O)N[C@@H](CCC(N)=O)C(=O)N[C@@H](CCC(=O)O)C(=O)N[C@@H](CCCCN)C(=O)N[C@@H](CC(N)=O)C(=O)N1CCC[C@H]1C(=O)N[C@@H](CC(C)C)C(=O)N1CCC[C@H]1C(=O)N[C@@H](CO)C(=O)N[C@@H](CCCCN)C(=O)N[C@@H](CCC(=O)O)C(=O)N[C@H](C(=O)N[C@H](C(=O)N[C@@H](CCC(=O)O)C(=O)N[C@@H](CCC(N)=O)C(=O)N[C@@H](CCC(=O)O)C(=O)N[C@@H](CCCCN)C(=O)N[C@@H](CCC(N)=O)C(=O)N[C@@H](C)C(=O)NCC(=O)N[C@@H](CCC(=O)O)C(=O)N[C@@H](CO)C(=O)O)[C@@H](C)CC)[C@@H](C)O)[C@@H](C)O)[C@@H](C)O [Tβ4, thymosin beta 4]","thermal latency, hot plate test",markedly improved
same,"thermal latency, tail flick test",markedly improved
